Experimental data as given in PMC6821912.
These are yes or no findings as the source states them, for the method shown. Binding seen in cells or lysates may run through a third protein. Some binding calls cover weakened binding; strength is not graded here. For some of these results: Sequences can lack the tags named with a protein.

Protein sequences, listed by entry. Tags and fused reporters are not part of them.
UniProt O15105: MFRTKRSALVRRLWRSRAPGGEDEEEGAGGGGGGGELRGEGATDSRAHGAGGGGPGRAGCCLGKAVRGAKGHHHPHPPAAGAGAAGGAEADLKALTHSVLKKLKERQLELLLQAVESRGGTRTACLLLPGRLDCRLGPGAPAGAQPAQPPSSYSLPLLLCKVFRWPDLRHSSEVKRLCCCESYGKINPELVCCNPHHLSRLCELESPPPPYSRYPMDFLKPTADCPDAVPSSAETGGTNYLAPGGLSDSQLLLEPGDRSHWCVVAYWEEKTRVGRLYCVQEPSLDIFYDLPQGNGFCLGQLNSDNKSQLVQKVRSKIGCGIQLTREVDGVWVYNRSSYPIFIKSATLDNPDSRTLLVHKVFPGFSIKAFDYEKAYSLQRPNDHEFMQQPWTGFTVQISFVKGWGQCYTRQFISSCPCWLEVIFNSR
UniProt Q9HCE7: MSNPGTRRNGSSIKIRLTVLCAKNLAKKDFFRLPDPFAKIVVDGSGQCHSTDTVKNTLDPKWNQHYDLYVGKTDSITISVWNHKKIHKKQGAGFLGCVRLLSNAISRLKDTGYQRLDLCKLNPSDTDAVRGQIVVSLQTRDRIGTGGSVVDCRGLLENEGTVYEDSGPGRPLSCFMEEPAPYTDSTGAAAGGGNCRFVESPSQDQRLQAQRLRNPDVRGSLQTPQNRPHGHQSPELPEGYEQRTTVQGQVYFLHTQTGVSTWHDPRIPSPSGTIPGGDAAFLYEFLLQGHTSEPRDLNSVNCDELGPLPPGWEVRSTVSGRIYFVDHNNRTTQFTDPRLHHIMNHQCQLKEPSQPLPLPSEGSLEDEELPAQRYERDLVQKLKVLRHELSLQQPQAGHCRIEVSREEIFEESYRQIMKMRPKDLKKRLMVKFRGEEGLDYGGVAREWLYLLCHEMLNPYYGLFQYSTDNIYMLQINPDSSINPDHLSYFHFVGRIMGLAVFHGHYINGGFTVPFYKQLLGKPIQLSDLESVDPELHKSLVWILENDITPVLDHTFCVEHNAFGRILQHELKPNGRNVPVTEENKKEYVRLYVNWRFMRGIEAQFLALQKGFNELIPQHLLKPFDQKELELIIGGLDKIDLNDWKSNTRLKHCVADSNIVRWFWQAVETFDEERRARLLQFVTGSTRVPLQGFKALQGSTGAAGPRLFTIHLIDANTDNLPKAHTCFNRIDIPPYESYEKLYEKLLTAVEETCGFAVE

Columns and labels:
[1] = target: T1, Strep-tagged Gadd45β (human) (UniProt O75293); assay: pull-down; Strep pull-down (Strep-Tactin Sepharose, overnight, 4 °C) from RIPA lysates of HEK293T cells co-transfected with HA-Smad7 and Strep-Gadd45β; immunoblot with anti-HA and anti-Strep
T1 sequence: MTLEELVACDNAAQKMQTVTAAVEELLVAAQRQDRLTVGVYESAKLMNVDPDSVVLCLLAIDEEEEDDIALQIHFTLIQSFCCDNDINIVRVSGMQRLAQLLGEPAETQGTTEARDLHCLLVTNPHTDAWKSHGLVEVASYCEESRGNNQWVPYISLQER

[2] = target: GST-tagged Smad7 (WT, in HEK293T cells) (human) (UniProt O15105); assay: pull-down; GST pull-down from RIPA lysates of HEK293T cells co-transfected with GST-Smad7, Myc-Smurf1 and rising doses of V5-Gadd45β; immunoblot with anti-Myc or anti-V5
[3] = target: GST-tagged Smad7 (in Caco-2 cells) (human) (UniProt O15105); assay: pull-down; GST pull-down (Glutathione 4B, overnight, 4 °C) from RIPA lysates of Caco-2 cells overexpressing GST-Smad7, treated with or without TGF-β1 (10 ng/mL) for 10 min; immunoblot with anti-Gadd45β

## HA-tagged Smad7 (from UniProt O15105 1-426)
[1]
  binding: binds

## Myc-tagged Smurf1 (from UniProt Q9HCE7 1-757) (enzyme)
[2]
  binding: binds

B1: Growth arrest and DNA damage-inducible 45 beta (Gadd45β), endogenous in Caco-2 cells (protein, UniProt O75293 1-160)
chain: MTLEELVACDNAAQKMQTVTAAVEELLVAAQRQDRLTVGVYESAKLMNVDPDSVVLCLLAIDEEEEDDIALQIHFTLIQSFCCDNDINIVRVSGMQRLAQLLGEPAETQGTTEARDLHCLLVTNPHTDAWKSHGLVEVASYCEESRGNNQWVPYISLQER
[3]
  binding: binds

B2: V5-tagged Gadd45β (protein, UniProt O75293 1-160)
chain: MTLEELVACDNAAQKMQTVTAAVEELLVAAQRQDRLTVGVYESAKLMNVDPDSVVLCLLAIDEEEEDDIALQIHFTLIQSFCCDNDINIVRVSGMQRLAQLLGEPAETQGTTEARDLHCLLVTNPHTDAWKSHGLVEVASYCEESRGNNQWVPYISLQER
[2]
  binding: binds
